From patent publication US20020077317A1, “Method of potentating the action of 2-methoxyoestradiol, statins and C-peptide of proinsulin” (priority 2000, published 2002)
At least one compound was matched to its structure with a doubt left.

Columns and labels:
skin papilloma = skin papilloma in mice; type: in vivo; conditions: pure fatty acid or fatty acid rich oils
ascitic tumor cells = ascitic tumor cells in the peritoneum; type: in vivo; conditions: experimental animals; pure fatty acid or fatty acid rich oils
KB-Ch^R-8-5 = experiment: vincristine resistant KB-ChR-8-5 tumor cells; type: cell-based
hepatoma = hepatoma in rats; type: in vivo; conditions: pure fatty acid or fatty acid rich oils
[1] = system: normal and tumor cells grown together; experiment: mixed culture of normal and tumor cells; type: cell-based
Description: (§1) Tumor cells are not only deficient in PUFAs but also have low rate(s) of lipid peroxidation and low amounts of superoxide dismutase (SOD), and contain relatively large amounts of antioxidants such as vitamin E. It is also believed that low rates of lipid peroxidation and consequent low amounts of lipid peroxides in the cells can contribute to an increase in the mitotic process which ultimately leads to an increase in cell proliferation. Thus, a deficiency of PUFAs, high amounts of antioxidants and the presence of low amounts of lipid peroxides in the tumor cells can contribute to the growth of tumor cells.

[2] = system: TNF resistant L-929 tumor cells; experiment: TNF resistant L-929 tumor cells in vitro; type: cell-based; conditions: for killing of TNF resistant L-929 tumor cells: in vitro; for sensitisation of TNF-resistant L-929 cells to TNF: prior treatment with fatty acid
[3] = system: tumor cells and normal cells; experiment: PUFAs on tumor cells and normal cells in vitro; type: cell-based; conditions: for killing of tumor cells versus normal cells: in vitro
Description: as §1
Essential fatty acids are precursors of eicosanoids and are important structural components of cell membranes. They also provide the substrates for the generation of lipid peroxidation products which have an inhibitory action on cell proliferation. Tumor cells are known to have low delta-6-desaturase activity, an enzyme necessary for the desaturation of dietary linoleic acid (LA, 18:2, n-6) and alpha-linolenic acid (ALA, 18:3, n-3) to their respective products. […] This selective tumoricidal action of fatty acids seems to be mediated by free radicals and lipid peroxides.

tumor cells = experiment: PUFA potentiation of anti-cancer drugs in tumor cells; type: cell-based

Row | Compound | growth of skin papilloma (skin papilloma) | growth of ascitic tumor cells in the peritoneum (ascitic tumor cells) | sensitisation of vincristine resistant cells to vincristine (KB-Ch^R-8-5) | formation and growth of hepatoma (hepatoma) | selective tumoricidal action in mixed culture [1] | killing of TNF resistant L-929 tumor cells [2] | sensitisation of TNF-resistant L-929 cells to TNF [2] | tumor cell proliferation [3] | killing of tumor cells versus normal cells [3] | cellular uptake of anti-cancer drugs by tumor cells (tumor cells)
1 | CC/C=C\C/C=C\C/C=C\C/C=C\C/C=C\C/C=C\CCC(=O)O [DHA, docosahexaenoic acid] | inhibit the growth | inhibit the growth | made sensitive to the cytotoxic action of vincristine | inhibit the growth | effective to some extent | able to kill | rendered TNF sensitive | decrease tumor cell proliferation | only tumor cells are killed | enhance the cellular uptake
2 | CC/C=C\C/C=C\C/C=C\C/C=C\C/C=C\CCCC(=O)O [EPA, eicosapentaenoic acid] | inhibit the growth | inhibit the growth | made sensitive to the cytotoxic action of vincristine | inhibit the growth | effective to some extent | able to kill | rendered TNF sensitive | decrease tumor cell proliferation | only tumor cells are killed | enhance the cellular uptake
